From article PMC9848475
No constants are given. Whether binding was seen depends on the method and setting. In cells and extracts the contact can be indirect. For some assays here: Where a sequence is shown, tags or fusion partners need not be part of it.

Chains of the proteins cited; added tags and fusions are not shown. Lines headed by an entry give the natural chain unless they say otherwise; changes in a name come on top.
UniProt Q9QZ85: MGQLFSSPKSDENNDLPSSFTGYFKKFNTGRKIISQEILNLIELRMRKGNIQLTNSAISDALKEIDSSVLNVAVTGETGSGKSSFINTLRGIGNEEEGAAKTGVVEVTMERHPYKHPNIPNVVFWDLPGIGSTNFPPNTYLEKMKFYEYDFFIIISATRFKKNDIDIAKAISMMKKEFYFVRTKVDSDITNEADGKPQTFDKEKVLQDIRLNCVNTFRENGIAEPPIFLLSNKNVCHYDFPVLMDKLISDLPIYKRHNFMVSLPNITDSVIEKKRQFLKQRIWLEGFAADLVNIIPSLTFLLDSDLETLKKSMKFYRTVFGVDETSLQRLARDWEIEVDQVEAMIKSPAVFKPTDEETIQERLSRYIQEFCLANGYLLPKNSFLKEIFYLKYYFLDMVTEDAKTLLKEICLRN
UniProt S8F1L0: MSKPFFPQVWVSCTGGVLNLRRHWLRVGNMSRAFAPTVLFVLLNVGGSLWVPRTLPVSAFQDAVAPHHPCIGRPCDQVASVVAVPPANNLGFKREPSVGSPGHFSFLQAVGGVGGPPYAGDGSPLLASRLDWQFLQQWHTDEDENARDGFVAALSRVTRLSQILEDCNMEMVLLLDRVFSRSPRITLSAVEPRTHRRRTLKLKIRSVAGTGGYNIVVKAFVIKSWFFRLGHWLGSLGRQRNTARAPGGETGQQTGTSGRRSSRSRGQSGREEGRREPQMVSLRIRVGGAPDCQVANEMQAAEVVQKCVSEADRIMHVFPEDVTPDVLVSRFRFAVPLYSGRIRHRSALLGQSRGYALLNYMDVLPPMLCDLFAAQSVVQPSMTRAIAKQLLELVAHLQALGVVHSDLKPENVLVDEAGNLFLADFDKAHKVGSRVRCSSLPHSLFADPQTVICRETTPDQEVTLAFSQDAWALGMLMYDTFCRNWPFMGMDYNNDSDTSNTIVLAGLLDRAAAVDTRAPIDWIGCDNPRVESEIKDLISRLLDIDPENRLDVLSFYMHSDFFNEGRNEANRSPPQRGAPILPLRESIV

Key:
[1] = target: Irga6 fused to a fragment of TEM-1 β-lactamase (mouse) (UniProt Q9QZ85); experiment: split reporter; protein-fragment complementation assay with split TEM-1 β-lactamase (BlaN, BlaC fusions) co-transfected in HEK293T; nitrocefin hydrolysis in lysates, absorbance at 495 nm
[2] = target: T1, Irgb6 fused to a fragment of TEM-1 β-lactamase (mouse) (UniProt Q62293); experiment: as above
T1 sequence: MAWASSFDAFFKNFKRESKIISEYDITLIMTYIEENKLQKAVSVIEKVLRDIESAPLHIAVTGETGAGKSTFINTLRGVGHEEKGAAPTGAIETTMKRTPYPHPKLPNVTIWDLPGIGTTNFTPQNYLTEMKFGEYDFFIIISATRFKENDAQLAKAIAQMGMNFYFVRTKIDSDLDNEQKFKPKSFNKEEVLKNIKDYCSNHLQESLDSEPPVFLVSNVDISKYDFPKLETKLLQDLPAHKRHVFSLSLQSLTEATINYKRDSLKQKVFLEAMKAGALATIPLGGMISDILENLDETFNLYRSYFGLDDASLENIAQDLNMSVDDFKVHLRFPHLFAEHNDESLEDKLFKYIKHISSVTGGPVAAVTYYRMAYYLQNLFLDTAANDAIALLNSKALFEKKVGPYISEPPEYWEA

Substance: T. gondii type I ROP39 fused to the C-terminal fragment of TEM-1 β-lactamase (from UniProt S8F1L0)
- binding [1]: no binding
- binding [2]: no binding
